# Experimental data taken from paper PMC6955223, “The adaptor proteins HAP1a and GRIP1 collaborate to activate the kinesin-1 isoform KIF5C” (Journal of Cell Science, 2019).
# Amino acid sequences for entries named in this document (tags omitted).
# UniProt P97879: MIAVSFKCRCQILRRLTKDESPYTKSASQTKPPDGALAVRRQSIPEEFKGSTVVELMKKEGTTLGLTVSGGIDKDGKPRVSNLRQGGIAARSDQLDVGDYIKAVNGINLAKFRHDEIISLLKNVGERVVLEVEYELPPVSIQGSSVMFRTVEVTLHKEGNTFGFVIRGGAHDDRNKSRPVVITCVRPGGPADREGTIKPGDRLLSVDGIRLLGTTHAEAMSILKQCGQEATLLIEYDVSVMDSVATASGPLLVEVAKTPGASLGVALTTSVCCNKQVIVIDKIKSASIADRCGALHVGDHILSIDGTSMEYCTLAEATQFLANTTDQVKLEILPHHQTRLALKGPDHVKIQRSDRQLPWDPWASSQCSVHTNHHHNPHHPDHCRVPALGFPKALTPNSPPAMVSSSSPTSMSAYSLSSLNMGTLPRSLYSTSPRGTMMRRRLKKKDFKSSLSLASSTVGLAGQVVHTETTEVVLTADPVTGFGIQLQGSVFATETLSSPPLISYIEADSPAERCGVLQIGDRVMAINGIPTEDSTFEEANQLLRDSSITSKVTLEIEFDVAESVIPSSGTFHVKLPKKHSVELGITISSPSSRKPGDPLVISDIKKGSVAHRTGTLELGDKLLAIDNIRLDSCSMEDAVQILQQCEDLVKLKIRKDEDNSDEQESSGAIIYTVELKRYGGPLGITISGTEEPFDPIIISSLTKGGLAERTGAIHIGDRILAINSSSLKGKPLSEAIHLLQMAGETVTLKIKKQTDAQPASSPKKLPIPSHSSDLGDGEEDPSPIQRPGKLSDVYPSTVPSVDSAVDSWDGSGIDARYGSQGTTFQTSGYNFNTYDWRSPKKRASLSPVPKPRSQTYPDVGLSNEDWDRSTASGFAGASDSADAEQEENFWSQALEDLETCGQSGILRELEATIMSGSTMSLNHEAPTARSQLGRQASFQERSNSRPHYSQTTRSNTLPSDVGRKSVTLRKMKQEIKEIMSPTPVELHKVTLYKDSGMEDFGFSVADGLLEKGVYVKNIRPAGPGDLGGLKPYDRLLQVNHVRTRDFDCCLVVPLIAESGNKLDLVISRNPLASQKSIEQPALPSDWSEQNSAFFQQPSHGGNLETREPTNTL
# No constants are given. Whether binding was seen depends on the method and setting. In cells and extracts the contact can be indirect. Some binding calls cover weakened binding; strength is not graded here. Sequences can lack the tags named with a protein.
# B1: HA–HAP1a (huntingtin-associated protein 1, isoform a) (protein, UniProt P54256-2 1-599)
# chain: MRPKDQVQSSAGDGTGSGDPATGTPTTQPAADPAPEPSAEPKPAPAQGTGSGQKSGSRTKTGGSFCRSRIRGDSDAPWTRYIFQGPYGPRATGLGTGRAEGIWKTPAAYIGRRPGVSGPERAAFIRELQEALCPNPLPRKKITEDDIKVMLYLLEEKERDLNTAARIGQSLVKQNSVLMEENNKLETMLGSAREEILHLRKQVNLRDDLLQLYSDSDDDEEDEEDEEEEEGEEEEREGQRDQDQQHDHPYGAPKPPPKAETLHHCPQLEALKQKLKLLEEENDHLREEASHLDNLEDKEQMLILECVEQFSEASQQMAELSEVLVLRLEGYERQQKEITQLQAEITKLQQRCQSYGAQTEKLQQQLASEKGVHPESLRAGSHMQDYGSRPRERQEDGKSHRQRSSMPAGSVTHYGYSVPLDALPSFPETLAEELRTSLRKFITDPAYFMERCDTRCREERKKEQGTMPPPPVQDLKPPEDFEAPEELVPEEELGAIEEVGTAEDGPAEETEQASEETEAWEEVEPEVDEATRMNVVVSALEASGLGPSHLDMKYVLQQLSNWQDAHSKRQQKQKVVPKGECSRRGHPPASGTSYRSSTL
# Molecular target: GFP–GRIP1a (glutamate receptor interacting protein 1, splice form a) (UniProt P97879)
# Assay: co-IP; co-transfected COS cells; extract in IP buffer (50 mM Tris-HCl pH 7.5, 0.5% Triton X-100, 150 mM NaCl, 1 mM EDTA, 1 mM PMSF), 1 µg antibody for 1 h (anti-GFP in Fig. 1G), Protein G–Sepharose, three washes, western blot
binder,measurement,value
B1,binding,binds
